Data taken from US7037662.
Results are given in words; binding and its absence hold for the method and conditions named. Some entries that bind do so weakly or less than the wild type. Sequences can lack the tags named with a protein.

Key:
[1] = biological target: T1, soluble HEK (sHEK), complete extracellular domain (exodomain) of HEK encoded by exons I-VII (human) (UniProt P29320); test: BIAcore, LERK-Fc over HEK-derivatised sensor chip
T1 sequence (looked up): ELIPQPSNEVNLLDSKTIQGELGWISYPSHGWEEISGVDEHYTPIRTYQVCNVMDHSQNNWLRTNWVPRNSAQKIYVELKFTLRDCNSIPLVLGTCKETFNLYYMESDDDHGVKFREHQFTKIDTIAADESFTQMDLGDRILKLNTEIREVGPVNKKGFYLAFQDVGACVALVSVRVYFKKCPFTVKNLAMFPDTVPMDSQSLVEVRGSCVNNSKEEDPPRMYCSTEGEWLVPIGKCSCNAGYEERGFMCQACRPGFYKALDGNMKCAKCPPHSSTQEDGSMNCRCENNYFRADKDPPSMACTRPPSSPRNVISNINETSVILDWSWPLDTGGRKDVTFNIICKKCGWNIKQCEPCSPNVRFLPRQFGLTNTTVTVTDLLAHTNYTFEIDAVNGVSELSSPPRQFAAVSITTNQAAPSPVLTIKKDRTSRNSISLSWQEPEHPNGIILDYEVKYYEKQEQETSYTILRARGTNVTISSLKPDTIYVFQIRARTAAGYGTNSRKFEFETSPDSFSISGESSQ

[2] = biological target: T1, soluble HEK (sHEK), complete extracellular domain (exodomain) of HEK encoded by exons I-VII (human); test: BIAcore, LERK-Fc fusion over sensor chip-immobilised HEK exodomain
[3] = biological target: T1, soluble HEK (sHEK), complete extracellular domain (exodomain) of HEK encoded by exons I-VII (human); test: BIAcore, LERK-Fc fusion at 10 µg/ml over sensor chip-immobilised HEK exodomain
[4] = biological target: T1, soluble HEK (sHEK), complete extracellular domain (exodomain) of HEK encoded by exons I-VII (human); test: BIAcore; Fc fusion protein at 10 µg/ml (50 µl) on an sHEK-derivatised sensor chip; response 20 s after the end of the injection

Measured: binding

B1: LERK 2-Fc fusion protein (Fc fusion, UniProt P98172 28-237, looked up, not shown: a dimerising Fc or GST)
chain: LAKNLEPVSWSSLNPKFLSGKGLVIYPKIGDKLDIICPRAEAGRPYEYYKLYLVRPEQAAACSTVLDPNVLVTCNRPEQEIRFTIKFQEFSPNYMGLEFKKHHDYYITSTSNGSLEGLENREGGVCRTRTMKIIMKVGQDPNAVTPEQLTTSRPSKEADNTVKMATQAPGSRGSLGDSDGKHETVNQEEKSGPGASGGSSGDPDGFFNSK
binds: all assays above

B2: LERK 4-Fc fusion protein (Fc fusion, UniProt P52798 26-170, looked up, not shown: a dimerising Fc or GST)
chain: LRHVVYWNSSNPRLLRGDAVVELGLNDYLDIVCPHYEGPGPPEGPETFALYMVDWPGYESCQAEGPRAYKRWVCSLPFGHVQFSEKIQRFTPFSLGFEFLPGETYYYISVPTPESSGQCLRLQVSVCCKERKSESAHPVGSPGES
binds: [1] | [2] | [4]
